Experimental data taken from PubChem BioAssay AID256 (DTP/NCI, 2004).
The list is a part of this screen's results and no random one: it is rich in T/C values a quarter to a half above the control, in often repeated tests (any T/C) and in doses without a T/C. Other doses and runs of a compound stand elsewhere. T/C: endpoint of the treated group in % of that of the vehicle group. Some doses have a count of surviving animals in place of a T/C: the source files T/C as zero there, which appears to mark a toxic dose or a test without result, not a measured value. Some survivor counts are full or nearly so, which does not show that the dose was tolerated: the source hardly ever lists a survival T/C far under the control, and the zero likely stands for such cases as well. Counts of survivors are from the toxicity check (mostly the fifth day) where no day follows; animals may have died later. Schedules are NCI's codes, read here as Q, the interval in days (D) or hours (H), X, the number of doses. Some doses were run more than once; their values stand side by side, smallest first. Some structures stand for samples that the source files as different forms (salt, stereo form or complex); doses refer to the form tested. For survival time, the PubChem record calls one and a half times the control and up active, and a quarter to a half above the control has no call in these data; cut-offs in other NCI protocols can differ. Additions like (4×) stand for listed records that agree. Some T/C values are followed by the survivors on the day toxicity was checked, most often the fifth; where none is given, no animal had died by that day.

System: CD2F1 mice, L1210 leukemia ip, survival T/C
Assay: NCI In Vivo Anticancer Drug Screen. Data for tumor model L1210 Leukemia (intraperitoneal) in CD2F1 (CDF1) mice
Conditions: higher T/C = longer survival
Outline: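 Activity against a transplanted murine tumor was judged by comparing the compound group with a vehicle group. The outcome in the treated animals was divided by that in the controls.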

[1] = T/C endpoint: mean survival time, dose: 400.0 mg/kg/injection, schedule: Q04DX003 (ip), vehicle: saline with Tween-80
[2] = T/C endpoint: mean survival time, dose: 100.0 mg/kg/injection, schedule: Q01DX009 (ip), vehicle: saline with Tween-80
[3] = T/C endpoint: mean survival time, dose: 200.0 mg/kg/injection, schedule: Q01DX009 (ip), vehicle: saline with Tween-80
[4] = T/C endpoint: mean survival time, dose: 400.0 mg/kg/injection, schedule: Q01DX001 (ip), vehicle: saline with Tween-80

## CS(=O)(=O)OCCC(=O)N1CCN(C(=O)CCOS(C)(=O)=O)CC1
T/C endpoint: mean survival time, dose: 8.0 mg/kg/injection, schedule: Q03HX016 (ip), vehicle: saline
  T/C: 139 % of control
T/C endpoint: mean survival time, dose: 8.0 mg/kg/injection, schedule: Q03HX024 (ip), vehicle: saline
  T/C: 149 % of control
T/C endpoint: mean survival time, dose: 16.0 mg/kg/injection, schedule: Q01DX009 (ip), vehicle: saline
  T/C: 134 % of control
T/C endpoint: mean survival time, dose: 16.0 mg/kg/injection, schedule: Q03HX008 (ip), vehicle: saline
  T/C: 143 % of control
T/C endpoint: mean survival time, dose: 64.0 mg/kg/injection, schedule: Q01DX001 (ip), vehicle: saline
  T/C: 125 % of control
T/C endpoint: mean survival time, dose: 64.0 mg/kg/injection, schedule: Q03HX008 (ip), vehicle: saline
  survivor count: 10 of 10
T/C endpoint: mean survival time, dose: 64.0 mg/kg/injection, schedule: Q03HX024 (ip), vehicle: saline
  survivor count: 10 of 10
T/C endpoint: mean survival time, dose: 64.0 mg/kg/injection, schedule: Q04DX003 (ip), vehicle: saline
  T/C: 147 % of control
T/C endpoint: mean survival time, dose: 64.0 mg/kg/injection, schedule: Q08DX002 (ip), vehicle: saline
  T/C: 135 % of control
T/C endpoint: mean survival time, dose: 128.0 mg/kg/injection, schedule: Q01DX001 (ip), vehicle: saline
  T/C: 146 % of control
T/C endpoint: mean survival time, dose: 256.0 mg/kg/injection, schedule: Q01DX009 (ip), vehicle: saline
  survivor count: 10 of 10
T/C endpoint: mean survival time, dose: 512.0 mg/kg/injection, schedule: Q08DX002 (ip), vehicle: saline
  survivor count: 9 of 10

## CCCCCCCCCCCC(=O)NC1CC(O[C@H]2C[C@](O)(C(=O)CO)Cc3c(O)c4c(c(O)c32)C(=O)c2c(OC)cccc2C4=O)OC(C)C1O (some centres undefined)
T/C endpoint: mean survival time, dose: 12.0 mg/kg/injection, schedule: Q01DX009 (ip), vehicle: saline
  T/C: 125 % of control
T/C endpoint: mean survival time, dose: 48.0 mg/kg/injection, schedule: Q01DX009 (ip), vehicle: saline
  T/C: 125 % of control

## Cc1ccc(N)c(Br)c1
T/C endpoint: mean survival time, dose: 200.0 mg/kg/injection, schedule: Q04DX003 (ip), vehicle: saline
  survivor count: 0 of 3
[1]
  survivor count: 2 of 6
T/C endpoint: mean survival time, dose: 400.0 mg/kg/injection, schedule: Q04DX003 (ip), vehicle: saline
  survivor count: 0 of 3

## O=C(c1ccccc1[N+](=O)[O-])C(Br)C(Br)c1ccc(Cl)c(Cl)c1 (centres undefined)
T/C endpoint: mean survival time, dose: 50.0 mg/kg/injection, schedule: Q01DX009 (ip), vehicle: saline with Tween-80
  survivor count: 3 of 3
[2]
  T/C: 91 and 95 % of control (2×)
  survivor count: 3 of 3
[3]
  survivor count: 0 of 3 and 4 of 6
[4]
  survivor count: 3 of 6
T/C endpoint: mean survival time, dose: 400.0 mg/kg/injection, schedule: Q01DX009 (ip), vehicle: saline with Tween-80
  survivor count: 0 of 6 and 1 of 3
[1]
  survivor count: 1 of 6

## CCCC[CH2][Pb]([CH2]CCCC)([CH2]CCCC)[O]C(C)=O
T/C endpoint: mean survival time, dose: 2.0 mg/kg/injection, schedule: Q04DX003 (ip), vehicle: saline with Tween-80
  survivor count: 5 of 6
T/C endpoint: mean survival time, dose: 4.0 mg/kg/injection, schedule: Q04DX003 (ip), vehicle: saline with Tween-80
  survivor count: 4 of 6

## CCCN1C(=O)C=CC1=O
T/C endpoint: mean survival time, dose: 200.0 mg/kg/injection, schedule: Q01DX001 (ip), vehicle: saline with Tween-80
  survivor count: 1 of 6
[4]
  survivor count: 2 of 6

## CCOC(=O)C1(C#N)C(=O)CSC1=Nc1ccccc1Cl (centres undefined)
[3]
  survivor count: 3 of 3

## N=c1ccn2c(n1)OC1C(O)C(CO)OC12 (centres undefined)
T/C endpoint: mean survival time, dose: 37.5 mg/kg/injection, schedule: Q01DX005 (ip), vehicle: saline
  T/C: 129 % of control
T/C endpoint: mean survival time, dose: 50.0 mg/kg/injection, schedule: Q01DX005 (ip), vehicle: saline
  T/C: 150, 157, 172, 185, 188 % of control
T/C endpoint: mean survival time, dose: 100.0 mg/kg/injection, schedule: Q01DX005 (ip), vehicle: saline
  T/C: 164, 168, 175, 207, 227 % of control
T/C endpoint: mean survival time, dose: 200.0 mg/kg/injection, schedule: Q01DX005 (ip), vehicle: saline
  T/C: 193, 194 (2×), 225, 228 % of control
T/C endpoint: mean survival time, dose: 400.0 mg/kg/injection, schedule: Q01DX005 (ip), vehicle: saline
  T/C: 155 [5 of 6 alive], 195, 213, 239, 276 % of control
T/C endpoint: median survival time, dose: 300.0 mg/kg/injection, schedule: Q01DX009 (ip), vehicle: water
  T/C: 127 % of control
T/C endpoint: median survival time, dose: 400.0 mg/kg/injection, schedule: Q01DX009 (ip), vehicle: water
  T/C: 147 % of control

## O=C1CCCCC1C(=O)C(F)(F)F (centres undefined)
T/C endpoint: mean survival time, dose: 255.0 mg/kg/injection, schedule: Q01DX009 (ip), vehicle: saline with Tween-80
  survivor count: 6 of 6
T/C endpoint: mean survival time, dose: 385.0 mg/kg/injection, schedule: Q01DX009 (ip), vehicle: saline with Tween-80
  survivor count: 2 of 6

## CCOC(=O)CN1CCC2CC1c1c([nH]c3ccccc13)C2c1cc2c(cc1OC)N(C)C1C(O)(C(=O)OC)C(OC(C)=O)C3(CC)C=CCN4CCC21C43 (centres undefined)
T/C endpoint: mean survival time, dose: 4.0 mg/kg/injection, schedule: Q01DX009 (ip), vehicle: other
  survivor count: 6 of 6
